Reference: the supplement of paper PMC10849652
This is one part of the list.

Chains of the proteins cited; added tags and fusions are not shown. Lines headed by an entry give the natural chain unless they say otherwise; changes in a name come on top.
UniProt Q96GG9: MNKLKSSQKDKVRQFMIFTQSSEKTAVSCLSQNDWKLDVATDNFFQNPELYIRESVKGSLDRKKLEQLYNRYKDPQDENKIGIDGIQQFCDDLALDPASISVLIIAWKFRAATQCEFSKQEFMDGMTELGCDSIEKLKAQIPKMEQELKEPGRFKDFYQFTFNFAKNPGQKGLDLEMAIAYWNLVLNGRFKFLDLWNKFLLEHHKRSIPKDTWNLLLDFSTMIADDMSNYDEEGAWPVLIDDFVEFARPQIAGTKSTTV
UniProt Q58WW2: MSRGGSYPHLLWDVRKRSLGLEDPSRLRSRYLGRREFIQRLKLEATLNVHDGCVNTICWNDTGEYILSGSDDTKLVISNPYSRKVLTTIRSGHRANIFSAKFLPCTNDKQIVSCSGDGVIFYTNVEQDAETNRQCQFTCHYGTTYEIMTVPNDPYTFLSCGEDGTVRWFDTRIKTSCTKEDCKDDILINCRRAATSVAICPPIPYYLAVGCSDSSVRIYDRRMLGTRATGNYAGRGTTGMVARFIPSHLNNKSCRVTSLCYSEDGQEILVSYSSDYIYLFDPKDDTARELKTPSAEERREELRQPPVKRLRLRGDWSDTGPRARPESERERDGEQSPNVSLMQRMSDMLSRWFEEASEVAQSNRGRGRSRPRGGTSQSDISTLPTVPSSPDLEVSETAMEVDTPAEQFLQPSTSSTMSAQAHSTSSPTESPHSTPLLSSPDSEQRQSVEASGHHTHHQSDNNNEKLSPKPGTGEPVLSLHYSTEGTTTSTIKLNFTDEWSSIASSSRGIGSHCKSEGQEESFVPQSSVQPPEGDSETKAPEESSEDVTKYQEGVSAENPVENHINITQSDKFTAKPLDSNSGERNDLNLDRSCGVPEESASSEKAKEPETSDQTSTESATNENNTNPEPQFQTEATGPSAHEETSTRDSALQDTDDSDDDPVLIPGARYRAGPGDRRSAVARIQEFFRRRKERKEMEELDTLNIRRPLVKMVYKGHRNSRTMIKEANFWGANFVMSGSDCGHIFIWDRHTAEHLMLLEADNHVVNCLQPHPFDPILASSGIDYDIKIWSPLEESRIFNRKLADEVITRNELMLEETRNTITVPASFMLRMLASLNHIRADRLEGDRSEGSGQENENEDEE
UniProt Q9UJU6: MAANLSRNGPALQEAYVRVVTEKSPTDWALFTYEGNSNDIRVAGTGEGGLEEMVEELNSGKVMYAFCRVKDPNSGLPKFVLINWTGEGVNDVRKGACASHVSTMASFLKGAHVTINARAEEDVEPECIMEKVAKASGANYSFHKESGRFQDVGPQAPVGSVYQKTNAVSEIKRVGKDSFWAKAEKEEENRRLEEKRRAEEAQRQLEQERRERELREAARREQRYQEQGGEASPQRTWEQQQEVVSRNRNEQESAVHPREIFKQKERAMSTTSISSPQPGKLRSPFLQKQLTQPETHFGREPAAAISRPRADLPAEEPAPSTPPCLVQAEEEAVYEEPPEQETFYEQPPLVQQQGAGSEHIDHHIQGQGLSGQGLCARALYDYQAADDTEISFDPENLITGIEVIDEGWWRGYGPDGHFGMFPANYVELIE
UniProt Q9NV06: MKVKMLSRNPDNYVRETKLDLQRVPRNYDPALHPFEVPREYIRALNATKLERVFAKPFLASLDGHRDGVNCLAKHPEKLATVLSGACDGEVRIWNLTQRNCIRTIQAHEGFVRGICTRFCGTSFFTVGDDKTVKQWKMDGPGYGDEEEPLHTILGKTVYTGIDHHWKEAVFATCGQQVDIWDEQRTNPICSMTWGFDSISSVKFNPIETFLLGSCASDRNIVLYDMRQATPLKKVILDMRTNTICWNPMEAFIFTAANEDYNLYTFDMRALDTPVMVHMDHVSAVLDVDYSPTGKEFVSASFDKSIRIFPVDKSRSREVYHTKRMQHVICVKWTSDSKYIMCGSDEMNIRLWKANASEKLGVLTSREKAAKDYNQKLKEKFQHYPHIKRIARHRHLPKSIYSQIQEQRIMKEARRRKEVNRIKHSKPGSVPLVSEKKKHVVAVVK
UniProt Q2TBE0: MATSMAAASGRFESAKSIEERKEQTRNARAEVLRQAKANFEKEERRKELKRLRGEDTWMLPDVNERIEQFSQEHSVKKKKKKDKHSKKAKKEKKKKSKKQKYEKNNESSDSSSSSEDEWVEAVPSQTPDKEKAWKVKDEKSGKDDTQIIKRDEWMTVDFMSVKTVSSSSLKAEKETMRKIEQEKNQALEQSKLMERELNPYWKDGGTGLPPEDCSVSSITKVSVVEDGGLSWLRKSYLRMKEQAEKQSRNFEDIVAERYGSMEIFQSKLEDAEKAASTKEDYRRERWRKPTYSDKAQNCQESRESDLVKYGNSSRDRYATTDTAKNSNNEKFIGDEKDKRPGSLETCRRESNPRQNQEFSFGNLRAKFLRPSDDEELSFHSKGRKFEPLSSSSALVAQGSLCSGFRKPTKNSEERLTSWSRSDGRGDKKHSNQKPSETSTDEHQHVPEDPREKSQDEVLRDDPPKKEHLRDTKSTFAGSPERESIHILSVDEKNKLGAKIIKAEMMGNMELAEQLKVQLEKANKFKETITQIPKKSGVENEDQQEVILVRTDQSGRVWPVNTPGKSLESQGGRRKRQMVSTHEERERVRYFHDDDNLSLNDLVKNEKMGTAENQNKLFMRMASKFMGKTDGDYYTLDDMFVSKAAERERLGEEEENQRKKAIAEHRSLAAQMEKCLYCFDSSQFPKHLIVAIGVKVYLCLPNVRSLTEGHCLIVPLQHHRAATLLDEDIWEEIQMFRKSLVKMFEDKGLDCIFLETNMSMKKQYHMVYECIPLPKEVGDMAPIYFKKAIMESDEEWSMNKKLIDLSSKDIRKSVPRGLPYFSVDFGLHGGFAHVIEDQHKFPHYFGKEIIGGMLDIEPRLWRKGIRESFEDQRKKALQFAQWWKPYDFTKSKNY
UniProt P53355: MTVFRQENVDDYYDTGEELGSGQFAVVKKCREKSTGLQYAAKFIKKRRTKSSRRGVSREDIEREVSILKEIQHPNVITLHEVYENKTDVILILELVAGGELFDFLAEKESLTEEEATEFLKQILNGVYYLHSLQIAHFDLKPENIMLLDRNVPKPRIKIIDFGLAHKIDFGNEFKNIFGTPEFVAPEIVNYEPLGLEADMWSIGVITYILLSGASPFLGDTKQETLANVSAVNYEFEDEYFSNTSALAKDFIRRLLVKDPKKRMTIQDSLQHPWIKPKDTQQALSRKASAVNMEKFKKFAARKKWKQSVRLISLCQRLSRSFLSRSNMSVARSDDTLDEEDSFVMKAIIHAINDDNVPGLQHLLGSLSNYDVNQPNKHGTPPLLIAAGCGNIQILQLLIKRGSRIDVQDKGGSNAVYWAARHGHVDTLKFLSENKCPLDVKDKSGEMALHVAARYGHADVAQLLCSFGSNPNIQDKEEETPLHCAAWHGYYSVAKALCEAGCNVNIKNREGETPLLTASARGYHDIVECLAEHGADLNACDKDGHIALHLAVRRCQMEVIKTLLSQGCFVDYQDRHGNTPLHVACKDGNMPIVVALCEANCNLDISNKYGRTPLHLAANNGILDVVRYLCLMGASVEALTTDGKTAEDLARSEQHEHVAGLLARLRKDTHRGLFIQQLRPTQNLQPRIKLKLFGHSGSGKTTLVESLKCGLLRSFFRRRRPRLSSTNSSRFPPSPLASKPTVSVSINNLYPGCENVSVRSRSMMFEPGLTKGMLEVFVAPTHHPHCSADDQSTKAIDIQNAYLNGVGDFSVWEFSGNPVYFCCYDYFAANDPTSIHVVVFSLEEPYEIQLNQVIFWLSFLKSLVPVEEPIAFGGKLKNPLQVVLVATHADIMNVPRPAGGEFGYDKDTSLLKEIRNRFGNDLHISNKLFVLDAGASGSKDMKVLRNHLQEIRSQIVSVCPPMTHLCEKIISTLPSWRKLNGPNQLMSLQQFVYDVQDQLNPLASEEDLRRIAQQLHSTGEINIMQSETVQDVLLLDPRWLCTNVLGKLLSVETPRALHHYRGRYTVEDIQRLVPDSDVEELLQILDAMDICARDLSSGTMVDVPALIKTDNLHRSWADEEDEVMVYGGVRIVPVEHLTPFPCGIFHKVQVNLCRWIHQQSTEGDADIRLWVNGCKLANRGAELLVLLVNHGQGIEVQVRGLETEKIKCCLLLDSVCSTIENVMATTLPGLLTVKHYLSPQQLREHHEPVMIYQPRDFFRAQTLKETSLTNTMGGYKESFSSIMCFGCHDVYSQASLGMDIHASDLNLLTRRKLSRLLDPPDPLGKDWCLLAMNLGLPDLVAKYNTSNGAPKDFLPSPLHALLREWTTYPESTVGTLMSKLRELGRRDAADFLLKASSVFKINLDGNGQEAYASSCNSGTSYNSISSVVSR
UniProt Q9H773: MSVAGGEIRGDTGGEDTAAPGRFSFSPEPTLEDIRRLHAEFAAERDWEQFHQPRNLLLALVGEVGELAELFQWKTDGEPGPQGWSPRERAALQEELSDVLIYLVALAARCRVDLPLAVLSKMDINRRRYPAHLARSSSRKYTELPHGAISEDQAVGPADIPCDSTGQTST
UniProt O43310: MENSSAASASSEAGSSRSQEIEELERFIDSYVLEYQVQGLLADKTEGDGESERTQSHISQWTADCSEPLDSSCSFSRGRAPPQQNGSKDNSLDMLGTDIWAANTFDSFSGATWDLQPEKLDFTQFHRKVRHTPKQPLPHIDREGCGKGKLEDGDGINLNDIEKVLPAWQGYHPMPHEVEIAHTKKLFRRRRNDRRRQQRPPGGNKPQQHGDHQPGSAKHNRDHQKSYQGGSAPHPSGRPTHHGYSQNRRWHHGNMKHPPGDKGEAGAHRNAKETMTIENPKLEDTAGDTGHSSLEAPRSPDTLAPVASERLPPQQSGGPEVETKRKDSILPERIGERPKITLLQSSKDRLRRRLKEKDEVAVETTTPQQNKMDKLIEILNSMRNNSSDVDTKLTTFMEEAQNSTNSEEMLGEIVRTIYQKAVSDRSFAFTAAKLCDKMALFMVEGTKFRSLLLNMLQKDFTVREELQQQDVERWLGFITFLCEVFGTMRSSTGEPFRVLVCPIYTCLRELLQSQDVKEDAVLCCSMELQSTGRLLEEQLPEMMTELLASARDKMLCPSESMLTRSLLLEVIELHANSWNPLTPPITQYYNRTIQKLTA
UniProt P39880: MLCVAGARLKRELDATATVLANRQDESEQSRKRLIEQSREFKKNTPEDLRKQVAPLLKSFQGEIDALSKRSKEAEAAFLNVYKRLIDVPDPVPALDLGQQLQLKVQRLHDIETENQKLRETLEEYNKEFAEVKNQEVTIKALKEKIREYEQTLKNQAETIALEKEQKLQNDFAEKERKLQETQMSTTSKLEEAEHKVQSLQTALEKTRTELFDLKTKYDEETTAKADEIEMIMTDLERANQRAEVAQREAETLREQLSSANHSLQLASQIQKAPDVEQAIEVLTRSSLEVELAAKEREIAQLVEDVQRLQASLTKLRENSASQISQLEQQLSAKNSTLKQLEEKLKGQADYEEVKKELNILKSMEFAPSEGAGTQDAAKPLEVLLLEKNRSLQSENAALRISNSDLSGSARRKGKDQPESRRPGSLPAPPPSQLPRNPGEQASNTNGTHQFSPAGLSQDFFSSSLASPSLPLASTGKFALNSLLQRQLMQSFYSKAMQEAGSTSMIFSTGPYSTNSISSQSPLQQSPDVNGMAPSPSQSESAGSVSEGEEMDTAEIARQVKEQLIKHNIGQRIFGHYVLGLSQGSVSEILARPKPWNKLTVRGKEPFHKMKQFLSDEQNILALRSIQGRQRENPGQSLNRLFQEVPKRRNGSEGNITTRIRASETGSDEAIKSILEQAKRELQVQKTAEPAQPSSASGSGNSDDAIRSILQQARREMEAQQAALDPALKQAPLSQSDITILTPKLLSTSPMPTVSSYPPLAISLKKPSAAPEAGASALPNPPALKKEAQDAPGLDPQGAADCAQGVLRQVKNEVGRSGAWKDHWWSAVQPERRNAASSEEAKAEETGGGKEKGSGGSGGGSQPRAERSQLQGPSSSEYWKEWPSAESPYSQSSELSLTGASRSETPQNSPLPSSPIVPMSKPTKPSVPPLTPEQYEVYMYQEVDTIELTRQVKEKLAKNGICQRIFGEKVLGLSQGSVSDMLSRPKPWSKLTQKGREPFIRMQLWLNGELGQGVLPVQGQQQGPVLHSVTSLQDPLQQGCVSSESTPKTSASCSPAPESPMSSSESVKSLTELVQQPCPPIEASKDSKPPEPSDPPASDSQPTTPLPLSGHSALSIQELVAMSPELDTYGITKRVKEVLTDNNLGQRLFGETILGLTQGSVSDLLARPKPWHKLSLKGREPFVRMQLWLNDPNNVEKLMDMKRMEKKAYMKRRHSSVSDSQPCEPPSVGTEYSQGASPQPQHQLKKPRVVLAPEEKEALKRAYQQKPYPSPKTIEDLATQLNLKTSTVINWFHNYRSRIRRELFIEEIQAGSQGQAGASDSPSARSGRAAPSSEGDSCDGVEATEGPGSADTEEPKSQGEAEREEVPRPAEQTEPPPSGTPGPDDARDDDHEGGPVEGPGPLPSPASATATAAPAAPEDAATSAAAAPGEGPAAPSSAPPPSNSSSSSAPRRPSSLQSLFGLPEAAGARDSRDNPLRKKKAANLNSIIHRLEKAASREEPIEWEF

Each target was assayed with CC1=C(C=C(C=C1)NC(=O)C2=CC(=CC=C2)C(C)(C)C#N)NC3=CC4=C(C=C3)N=CN(C4=O)C (assay: log2 fold change, soluble protein after heating vs DMSO (PISA); higher = thermal stabilisation; K562 cells, 10 uM, 30 min; active = over 0.2 and 3.5 SD of the protein, either way, in both replicates (recomputed)).
How it was run: (§1)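 Values are thermal stability changes relative to control samples and are taken from duplicates. They are stated as log2 fold changes. Before quantification by TMTpro 16plex LC-MS/MS with equalised channel sums, K562 cells at 2×10^6 cells/mL were treated with 10 μM compound for 30 min, heated in aliquots for 3 min across 48°C-58°C, pooled, extracted in PBS with 0.5% NP-40 at 4°C, and centrifuged at 21,000xg for 90 min to give the soluble supernatant.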

Target	log2 fold change
DCTN5 (UniProt Q9BTE1)	inactive: -0.006
CTU1 (UniProt Q7Z7A3)	inactive: 0.011
CYSTM1 (UniProt Q9H1C7)	inactive: -0.015
DCAF4 (UniProt Q8WV16)	inactive: 0.03
CYB5A (UniProt P00167)	inactive: -0.044
DCUN1D1 (UniProt Q96GG9)	inactive: -0.027
CYP46A1 (UniProt Q9Y6A2)	inactive: -0.046
DCAF6 isoform 3 (UniProt Q58WW2)	inactive: 0.016
CSRP3 (UniProt P50461)	inactive: -0.051
DCAF4L2 (UniProt Q8NA75)	inactive: -0.096
CTR9 (UniProt Q6PD62)	inactive: -0.054
DBNL isoform 3 (UniProt Q9UJU6)	inactive: -0.051
CTSZ (UniProt Q9UBR2)	inactive: -0.009
DCTN1 isoform 4 (UniProt Q14203)	inactive: 0.022
CTSS (UniProt P25774)	inactive: 0.032
CYBA (UniProt P13498)	inactive: -0.017
CT55 (UniProt Q8WUE5)	inactive: -0.003
DCAF13 (UniProt Q9NV06)	inactive: -0.038
CSRP2 (UniProt Q16527)	inactive: -0.215
CYB561A3 isoform 2 (UniProt Q8NBI2)	inactive: 0.051

Target	log2 fold change
DBT (UniProt P11182)	inactive: 0.001
CWF19L2 (UniProt Q2TBE0)	inactive: -0.048
DBN1 isoform 3 (UniProt Q16643)	inactive: -0.079
CTSH (UniProt P09668)	inactive: -0.007
DCP2 (UniProt Q8IU60)	inactive: -0.134
CTSC (UniProt P53634)	inactive: -0.113
DAXX (UniProt Q9UER7)	inactive: 0.019
CTNND1 (UniProt O60716)	inactive: -0.107
DCAF16 (UniProt Q9NXF7)	inactive: -0.036
CSTF2 (UniProt P33240)	inactive: -0.081
CTSB (UniProt P07858)	inactive: -0.035
DAPK1 isoform 3 (UniProt P53355)	inactive: -0.021
DCTPP1 (UniProt Q9H773)	inactive: 0.003
CTIF (UniProt O43310)	inactive: -0.071
CWC25 (UniProt Q9NXE8)	inactive: -0.052
CYP2S1 isoform 2 (UniProt Q96SQ9)	inactive: -0.057
DAB2 (UniProt P98082)	inactive: 0.016
CYP51A1 (UniProt Q16850)	inactive: 0.063
CTSA (UniProt P10619)	inactive: -0.033
CUX1 isoform 3 (UniProt P39880)	inactive: -0.039

The targets below were run with CC1=C(C=C(C=C1)NC(=O)C2=CC(=CC=C2)N(C)C)NC(=O)C3=CC=C(C=C3)O in the same assay as above.
How it was run: as §1

Target	log2 fold change
DCTN5 (UniProt Q9BTE1)	inactive: 0
CTU1 (UniProt Q7Z7A3)	inactive: -0.023
CYSTM1 (UniProt Q9H1C7)	inactive: 0.117
DCAF4 (UniProt Q8WV16)	inactive: 0.072
CYB5A (UniProt P00167)	inactive: -0.067
DCUN1D1 (UniProt Q96GG9)	inactive: -0.077
CYP46A1 (UniProt Q9Y6A2)	inactive: 0.019
DCAF6 isoform 3 (UniProt Q58WW2)	inactive: -0.035
CSRP3 (UniProt P50461)	inactive: 0.008
DCAF4L2 (UniProt Q8NA75)	inactive: 0.068
CTR9 (UniProt Q6PD62)	inactive: -0.154
DBNL isoform 3 (UniProt Q9UJU6)	inactive: -0.019
CTSZ (UniProt Q9UBR2)	inactive: -0.004
DCTN1 isoform 4 (UniProt Q14203)	inactive: -0.017
CTSS (UniProt P25774)	inactive: -0.045
CYBA (UniProt P13498)	inactive: 0.025
DCAF13 (UniProt Q9NV06)	inactive: 0.007
CSRP2 (UniProt Q16527)	inactive: 0.041
CYB561A3 isoform 2 (UniProt Q8NBI2)	inactive: 0.025
DBT (UniProt P11182)	inactive: -0.017

Target	log2 fold change
CWF19L2 (UniProt Q2TBE0)	inactive: 0.046
DBN1 isoform 3 (UniProt Q16643)	inactive: 0.045
CTSH (UniProt P09668)	inactive: 0.066
DCP2 (UniProt Q8IU60)	inactive: -0.006
CTSC (UniProt P53634)	inactive: 0.001
DAXX (UniProt Q9UER7)	inactive: -0.02
CTNND1 (UniProt O60716)	inactive: 0.187
DCAF16 (UniProt Q9NXF7)	inactive: -0.013
CSTF2 (UniProt P33240)	inactive: 0
CTSB (UniProt P07858)	inactive: -0.069
DAPK1 isoform 3 (UniProt P53355)	inactive: 0.149
DCTPP1 (UniProt Q9H773)	inactive: -0.078
CTIF (UniProt O43310)	inactive: -0.109
CWC25 (UniProt Q9NXE8)	inactive: 0.035
CYP2S1 isoform 2 (UniProt Q96SQ9)	inactive: -0.006
DAB2 (UniProt P98082)	inactive: 0.015
CYP51A1 (UniProt Q16850)	inactive: -0.036
CTSA (UniProt P10619)	inactive: 0.011
CUX1 isoform 3 (UniProt P39880)	inactive: 0.016
